Assay results reported in paper doi:10.1101/2024.09.11.612445 (bioRxiv, 2024).
These are yes or no findings as the source states them, for the method shown. In cells and extracts the contact can be indirect. Some entries that bind do so weakly or less than the wild type. Sequences can lack the tags named with a protein.

Protein sequences, listed by entry. Tags and fused reporters are not part of them.
UniProt A5YKK6: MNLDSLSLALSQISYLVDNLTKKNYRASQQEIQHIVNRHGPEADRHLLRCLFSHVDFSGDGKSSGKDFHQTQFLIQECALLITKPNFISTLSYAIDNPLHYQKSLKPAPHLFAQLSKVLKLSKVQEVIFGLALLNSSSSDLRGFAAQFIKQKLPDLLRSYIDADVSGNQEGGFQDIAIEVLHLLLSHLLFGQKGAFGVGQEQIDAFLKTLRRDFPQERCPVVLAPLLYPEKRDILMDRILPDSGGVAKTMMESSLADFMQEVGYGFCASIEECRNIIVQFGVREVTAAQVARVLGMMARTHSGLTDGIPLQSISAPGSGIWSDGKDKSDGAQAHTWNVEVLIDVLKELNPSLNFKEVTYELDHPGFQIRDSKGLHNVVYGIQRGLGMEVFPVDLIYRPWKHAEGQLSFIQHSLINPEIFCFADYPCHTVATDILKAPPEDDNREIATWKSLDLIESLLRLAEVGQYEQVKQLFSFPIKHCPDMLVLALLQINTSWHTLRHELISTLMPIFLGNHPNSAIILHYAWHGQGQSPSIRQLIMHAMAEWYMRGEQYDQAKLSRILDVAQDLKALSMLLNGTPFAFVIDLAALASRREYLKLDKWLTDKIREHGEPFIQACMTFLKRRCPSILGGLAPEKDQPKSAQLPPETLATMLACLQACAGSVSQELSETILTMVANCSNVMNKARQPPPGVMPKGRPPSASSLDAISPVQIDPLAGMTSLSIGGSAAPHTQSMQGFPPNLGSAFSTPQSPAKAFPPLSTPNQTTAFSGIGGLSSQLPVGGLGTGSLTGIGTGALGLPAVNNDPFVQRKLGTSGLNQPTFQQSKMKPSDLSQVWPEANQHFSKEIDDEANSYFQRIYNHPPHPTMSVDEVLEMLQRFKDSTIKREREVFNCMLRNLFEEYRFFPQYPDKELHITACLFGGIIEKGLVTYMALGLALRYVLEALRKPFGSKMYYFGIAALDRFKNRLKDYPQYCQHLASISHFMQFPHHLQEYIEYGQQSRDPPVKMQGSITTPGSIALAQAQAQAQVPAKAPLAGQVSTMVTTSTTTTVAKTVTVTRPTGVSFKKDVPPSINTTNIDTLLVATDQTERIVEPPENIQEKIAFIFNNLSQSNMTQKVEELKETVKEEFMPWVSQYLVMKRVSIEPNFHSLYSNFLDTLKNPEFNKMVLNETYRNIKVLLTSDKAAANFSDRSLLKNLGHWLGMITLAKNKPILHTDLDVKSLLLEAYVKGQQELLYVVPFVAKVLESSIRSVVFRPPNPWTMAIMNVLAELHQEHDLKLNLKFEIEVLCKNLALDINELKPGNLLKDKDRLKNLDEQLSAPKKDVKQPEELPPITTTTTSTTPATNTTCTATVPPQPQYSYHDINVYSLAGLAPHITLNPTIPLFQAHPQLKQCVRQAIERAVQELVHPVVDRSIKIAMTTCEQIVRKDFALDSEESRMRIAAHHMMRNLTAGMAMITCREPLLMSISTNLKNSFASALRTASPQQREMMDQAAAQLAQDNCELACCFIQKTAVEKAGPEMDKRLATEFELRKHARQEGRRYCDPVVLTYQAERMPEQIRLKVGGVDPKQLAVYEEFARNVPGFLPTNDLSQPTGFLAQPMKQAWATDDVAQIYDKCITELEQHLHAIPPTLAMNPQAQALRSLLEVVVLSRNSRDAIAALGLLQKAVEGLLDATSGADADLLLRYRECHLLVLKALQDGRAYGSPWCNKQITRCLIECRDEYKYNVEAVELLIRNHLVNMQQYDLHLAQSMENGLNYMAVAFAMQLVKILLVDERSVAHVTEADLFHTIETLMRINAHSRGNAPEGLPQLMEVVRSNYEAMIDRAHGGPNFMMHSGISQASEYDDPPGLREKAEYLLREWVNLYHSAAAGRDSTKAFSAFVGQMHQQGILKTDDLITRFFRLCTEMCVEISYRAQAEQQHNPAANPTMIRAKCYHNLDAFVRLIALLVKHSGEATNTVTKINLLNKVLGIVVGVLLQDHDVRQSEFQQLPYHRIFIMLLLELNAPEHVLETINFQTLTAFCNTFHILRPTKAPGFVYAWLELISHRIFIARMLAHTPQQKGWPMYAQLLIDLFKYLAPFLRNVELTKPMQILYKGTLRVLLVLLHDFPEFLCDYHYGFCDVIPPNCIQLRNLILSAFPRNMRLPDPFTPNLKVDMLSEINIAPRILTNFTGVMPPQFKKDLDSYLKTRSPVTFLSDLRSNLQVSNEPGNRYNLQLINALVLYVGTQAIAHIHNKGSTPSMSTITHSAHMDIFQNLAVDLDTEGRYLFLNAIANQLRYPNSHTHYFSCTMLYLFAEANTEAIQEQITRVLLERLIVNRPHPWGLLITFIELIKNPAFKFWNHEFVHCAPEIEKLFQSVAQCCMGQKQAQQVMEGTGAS

T1: YFP-ANKRD17 1950-2603 wild-type (human) (UniProt O75179)
T1 sequence: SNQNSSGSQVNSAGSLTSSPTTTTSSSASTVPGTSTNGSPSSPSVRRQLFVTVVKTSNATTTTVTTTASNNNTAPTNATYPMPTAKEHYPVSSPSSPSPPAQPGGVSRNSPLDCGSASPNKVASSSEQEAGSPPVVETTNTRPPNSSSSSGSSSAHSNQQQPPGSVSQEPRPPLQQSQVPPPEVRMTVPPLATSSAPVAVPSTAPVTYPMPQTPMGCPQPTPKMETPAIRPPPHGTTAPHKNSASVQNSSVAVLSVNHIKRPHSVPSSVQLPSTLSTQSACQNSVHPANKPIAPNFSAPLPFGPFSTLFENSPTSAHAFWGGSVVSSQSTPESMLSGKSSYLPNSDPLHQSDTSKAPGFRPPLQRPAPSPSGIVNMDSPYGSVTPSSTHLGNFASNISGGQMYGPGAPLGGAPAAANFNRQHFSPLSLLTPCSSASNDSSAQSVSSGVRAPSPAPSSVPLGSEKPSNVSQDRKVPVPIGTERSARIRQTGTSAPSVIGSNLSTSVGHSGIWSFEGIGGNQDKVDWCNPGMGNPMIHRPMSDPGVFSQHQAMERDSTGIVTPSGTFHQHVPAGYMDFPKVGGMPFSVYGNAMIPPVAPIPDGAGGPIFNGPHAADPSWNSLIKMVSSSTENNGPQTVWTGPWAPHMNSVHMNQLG

T2: YFP-tagged full length CPSF1 wild-type (Cleavage and polyadenylation specificity factor subunit 1) (human) (UniProt Q10570)
T2 sequence: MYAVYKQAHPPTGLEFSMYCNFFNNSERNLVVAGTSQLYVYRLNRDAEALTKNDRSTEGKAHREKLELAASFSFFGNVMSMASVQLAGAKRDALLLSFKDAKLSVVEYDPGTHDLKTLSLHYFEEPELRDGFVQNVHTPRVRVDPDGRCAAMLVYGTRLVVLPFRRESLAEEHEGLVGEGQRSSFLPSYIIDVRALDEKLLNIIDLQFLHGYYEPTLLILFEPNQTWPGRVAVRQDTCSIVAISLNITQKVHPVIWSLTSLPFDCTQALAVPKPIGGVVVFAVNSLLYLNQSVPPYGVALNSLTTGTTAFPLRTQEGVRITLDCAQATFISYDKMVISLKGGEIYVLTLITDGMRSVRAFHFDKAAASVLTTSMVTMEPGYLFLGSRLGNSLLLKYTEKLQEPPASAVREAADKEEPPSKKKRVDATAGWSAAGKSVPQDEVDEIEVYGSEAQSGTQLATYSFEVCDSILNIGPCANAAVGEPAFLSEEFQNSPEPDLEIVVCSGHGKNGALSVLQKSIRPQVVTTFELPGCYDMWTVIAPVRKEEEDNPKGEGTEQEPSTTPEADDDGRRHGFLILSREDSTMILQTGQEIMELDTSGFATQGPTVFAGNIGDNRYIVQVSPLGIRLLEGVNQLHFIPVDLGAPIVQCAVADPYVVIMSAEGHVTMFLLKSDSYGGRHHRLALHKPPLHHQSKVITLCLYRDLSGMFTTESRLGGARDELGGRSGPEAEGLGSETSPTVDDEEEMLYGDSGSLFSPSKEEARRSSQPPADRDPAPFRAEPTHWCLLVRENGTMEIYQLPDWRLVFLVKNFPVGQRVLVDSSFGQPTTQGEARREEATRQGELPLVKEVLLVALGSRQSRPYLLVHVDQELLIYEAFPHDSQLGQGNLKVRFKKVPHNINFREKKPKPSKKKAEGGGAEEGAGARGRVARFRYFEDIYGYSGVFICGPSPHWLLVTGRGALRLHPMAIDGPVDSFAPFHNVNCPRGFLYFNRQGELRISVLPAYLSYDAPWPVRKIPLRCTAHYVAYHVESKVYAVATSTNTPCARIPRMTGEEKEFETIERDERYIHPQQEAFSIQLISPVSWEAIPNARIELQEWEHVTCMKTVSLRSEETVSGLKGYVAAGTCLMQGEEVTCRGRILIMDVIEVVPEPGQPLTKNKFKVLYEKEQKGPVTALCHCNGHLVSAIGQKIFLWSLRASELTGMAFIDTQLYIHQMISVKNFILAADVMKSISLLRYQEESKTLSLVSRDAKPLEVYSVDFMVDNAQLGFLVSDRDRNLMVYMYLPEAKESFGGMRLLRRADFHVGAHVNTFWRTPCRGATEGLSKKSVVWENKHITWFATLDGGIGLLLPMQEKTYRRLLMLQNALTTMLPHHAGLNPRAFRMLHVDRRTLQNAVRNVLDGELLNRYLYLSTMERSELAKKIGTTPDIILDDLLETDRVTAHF


Key:
[1] = biological target: T1, YFP-ANKRD17 1950-2603 wild-type (human); assay: co-IP
[2] = biological target: T2, YFP-tagged full length CPSF1 wild-type (Cleavage and polyadenylation specificity factor subunit 1) (human); assay: co-IP

Molecule | binding [1] | binding [2]
CNOT1, endogenous (from UniProt A5YKK6 1-2376) | binds | 
Cleavage stimulation factor subunit 3 (CSTF3), endogenous (protein, UniProt Q12996 1-717) MSGDGATEQAAEYVPEKVKKAEKKLEENPYDLDAWSILIREAQNQPIDKARKTYERLVAQFPSSGRFWKLYIEAEIKAKNYDKVEKLFQRCLMKVLHIDLWKCYLSYVRETKGKLPSYKEKMAQAYDFALDKIGMEIMSYQIWVDYINFLKGVEAVGSYAENQRITAVRRVYQRGCVNPMINIEQLWRDYNKYEEGINIHLAKKMIEDRSRDYMNARRVAKEYETVMKGLDRNAPSVPPQNTPQEAQQVDMWKKYIQWEKSNPLRTEDQTLITKRVMFAYEQCLLVLGHHPDIWYEAAQYLEQSSKLLAEKGDMNNAKLFSDEAANIYERAISTLLKKNMLLYFAYADYEESRMKYEKVHSIYNRLLAIEDIDPTLVYIQYMKFARRAEGIKSGRMIFKKAREDTRTRHHVYVTAALMEYYCSKDKSVAFKIFELGLKKYGDIPEYVLAYIDYLSHLNEDNNTRVLFERVLTSGSLPPEKSGEIWARFLAFESNIGDLASILKVEKRRFTAFKEEYEGKETALLVDRYKFMDLYPCSASELKALGYKDVSRAKLAAIIPDPVVAPSIVPVLKDEVDRKPEYPKPDTQQMIPFQPRHLAPPGLHPVPGGVFPVPPAAVVLMKLLPPPICFQGPFVQVDELMEIFRRCKIPNTVEEAVRIITGGAPELAVEGNGPVESNAVLTKAVKRPNEDSDEDEEKGAVVPPVHDIYRARQQKRIR |  | binds
